Taken from: PubChem BioAssay AID1259254 (NCATS, 2017)
The whole screen tested about 59,000 reagents; below is an unselected part. About 1,550 of all reagents (2.6%) count as active. 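G2 share is only a proxy for re-replication; each gene was hit by three separate siRNAs, and active genes were retested.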 The raw values are shown without normalisation. Reagents against one gene are numbered here. Reagent sequences are not shown. The record does not give: the amount of reagent.

- Screen: 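Finding genes that stop cells copying their DNA twice in one cycle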 (primary screen)
- Cells: human HCT116 colorectal cancer cells
- Reagents: single siRNA against human genes
- Duration: 3 days
- Measured: 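Imaged Hoechst DNA stain sorts each cell into a cycle phase by DNA amount; per plate, G2 fraction set to 0% for non-targeting and 100% for GMNN siRNA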
- Direction: G2 robust z-score and G2 cells, % of GMNN control: higher = more G2 cells, more excess DNA replication; raw share of cells in G2: higher = larger share of cells with G2 DNA content
- Call rule: 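An siRNA counts as active if its G2 robust z-score lies at least 5 MADs above the screen median; here such calls match roughly 38% of GMNN control or more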

| gene symbol | reagent no. | G2 robust z-score | G2 cells, % of GMNN control | raw share of cells in G2 (%) | call |
| --- | --- | --- | --- | --- | --- |
| GFUS | 1 | -0.0771 | 2.42 | 6.62 | inactive |
| GFUS | 2 | -0.466 | -0.311 | 4.37 | inactive |
| GFUS | 3 | -0.965 | -3.82 | 2.84 | inactive |
| RPS19BP1 | 1 | 1.95 | 16.7 | 8.21 | inactive |
| RPS19BP1 | 2 | -0.935 | -3.61 | 2.55 | inactive |
| RPS19BP1 | 3 | 1.34 | 12.4 | 6.88 | inactive |
| PMEL | 1 | 0.787 | 8.5 | 8.59 | inactive |
| PMEL | 2 | -0.572 | -1.06 | 3.8 | inactive |
| PMEL | 3 | 2.93 | 23.6 | 11.9 | inactive |
| PIK3C2A | 1 | -0.989 | -3.99 | 4.29 | inactive |
| PIK3C2A | 2 | 2.44 | 20.1 | 12.2 | inactive |
| PIK3C2A | 3 | -0.485 | -0.442 | 3.87 | inactive |
| SIDT1 | 1 | 0.368 | 5.56 | 5.03 | inactive |
| SIDT1 | 2 | -0.793 | -2.61 | 2.67 | inactive |
| SIDT1 | 3 | -0.123 | 2.1 | 5.16 | inactive |
| RAB3C | 1 | 0.268 | 4.85 | 6.31 | inactive |
| RAB3C | 2 | 0.998 | 9.99 | 9.25 | inactive |
| RAB3C | 3 | 0.66 | 7.61 | 9.21 | inactive |
| AURKAIP1 | 1 | -0.0626 | 2.53 | 4.49 | inactive |
| AURKAIP1 | 2 | -1.65 | -8.66 | 2.9 | inactive |
| AURKAIP1 | 3 | 5.85 | 44.1 | 21.2 | active |
| SLMAP | 1 | 0.213 | 4.47 | 7.11 | inactive |
| SLMAP | 2 | -0.0989 | 2.27 | 4.8 | inactive |
| SLMAP | 3 | -0.55 | -0.905 | 3.03 | inactive |
| CASR | 1 | -0.578 | -1.1 | 5.45 | inactive |
| CASR | 2 | 0.651 | 7.55 | 7.16 | inactive |
| CASR | 3 | -0.683 | -1.84 | 2.71 | inactive |
| YPEL5 | 1 | 0.509 | 6.55 | 5.95 | inactive |
| YPEL5 | 2 | 0.586 | 7.09 | 7.26 | inactive |
| YPEL5 | 3 | 0.245 | 4.69 | 4.74 | inactive |
| TAF1D | 1 | 1.33 | 12.3 | 9.95 | inactive |
| TAF1D | 2 | -0.533 | -0.781 | 4.26 | inactive |
| TAF1D | 3 | 1 | 10 | 5.34 | inactive |
| DMPK | 1 | -0.601 | -1.26 | 3.58 | inactive |
| DMPK | 2 | 2.85 | 23.1 | 13.2 | inactive |
| DMPK | 3 | -1.76 | -9.41 | 2.24 | inactive |
| SLC4A10 | 1 | 2.06 | 17.5 | 12.9 | inactive |
| SLC4A10 | 2 | -0.939 | -3.64 | 3.06 | inactive |
| SLC4A10 | 3 | -0.599 | -1.24 | 3.77 | inactive |
| DNM3 | 1 | -1.22 | -5.64 | 3.6 | inactive |
| DNM3 | 2 | -0.611 | -1.33 | 3.74 | inactive |
| DNM3 | 3 | 1.42 | 12.9 | 8.22 | inactive |

Single entries from the entries so far:
For “raw share of cells in G2 (%)”, GFUS #3 reads 2.84
Value of CASR #1 in “call”: inactive
Value for RAB3C #2 under “G2 robust z-score”: 0.998
Result for TAF1D #1 in “G2 cells, % of GMNN control”: 12.3
Value for SLC4A10 #3 in “G2 robust z-score”: -0.599
Entry of AURKAIP1 #1 under “G2 robust z-score”: -0.0626

The results go on.
| gene symbol | reagent no. | G2 robust z-score | G2 cells, % of GMNN control | raw share of cells in G2 (%) | call |
| --- | --- | --- | --- | --- | --- |
| NDUFB8 | 1 | 0.49 | 6.41 | 8.01 | inactive |
| NDUFB8 | 2 | 0.317 | 5.2 | 7.37 | inactive |
| NDUFB8 | 3 | -1.23 | -5.66 | 1.33 | inactive |
| RPL7P56 | 1 | 4.32 | 33.4 | 16.7 | inactive |
| RPL7P56 | 2 | -0.497 | -0.533 | 3.14 | inactive |
| RPL7P56 | 3 | 6.42 | 48.1 | 21.8 | active |
| LRCH3 | 1 | 1.21 | 11.5 | 8.96 | inactive |
| LRCH3 | 2 | -0.0906 | 2.33 | 3.73 | inactive |
| LRCH3 | 3 | 0.914 | 9.4 | 5.9 | inactive |
| SACK1E | 1 | -0.997 | -4.05 | 2.16 | inactive |
| SACK1E | 2 | -0.632 | -1.48 | 3.65 | inactive |
| SACK1E | 3 | 0.91 | 9.37 | 6.29 | inactive |
| OR5AP2 | 1 | 0.266 | 4.84 | 5.65 | inactive |
| OR5AP2 | 2 | -0.0556 | 2.58 | 4.39 | inactive |
| OR5AP2 | 3 | -0.41 | 0.0841 | 4.22 | inactive |
| SPATA24 | 1 | 0.0716 | 3.47 | 3.86 | inactive |
| SPATA24 | 2 | -0.14 | 1.98 | 4.31 | inactive |
| SPATA24 | 3 | 0.485 | 6.38 | 5.1 | inactive |
| CYP27B1 | 1 | 0.0309 | 3.18 | 6.16 | inactive |
| CYP27B1 | 2 | 0.078 | 3.52 | 5.31 | inactive |
| CYP27B1 | 3 | 2.14 | 18 | 11.4 | inactive |
| MSRB3 | 1 | -0.363 | 0.412 | 4.87 | inactive |
| MSRB3 | 2 | 0.785 | 8.49 | 7.81 | inactive |
| MSRB3 | 3 | 1.39 | 12.8 | 12 | inactive |
| LOC729968 | 1 | 1.18 | 11.3 | 8.04 | inactive |
| LOC729968 | 2 | 0.248 | 4.71 | 4.97 | inactive |
| LOC729968 | 3 | -0.223 | 1.4 | 3.49 | inactive |
| LOC729968 | 4 | 1.82 | 15.8 | 10.3 | inactive |
| LOC729968 | 5 | -0.0145 | 2.87 | 4.19 | inactive |
| LOC729968 | 6 | -0.496 | -0.519 | 2.98 | inactive |
